The list shows a part of the results.
Key:
Assay in all cases: log2 fold change, soluble protein after heating vs DMSO (PISA); higher = thermal stabilisation; K562 lysate, 10 uM; active = over 0.2 and 3.5 SD of the protein, either way, in both replicates (recomputed)
[1] = compound: CCCS(=O)(=O)Nc1ccc(F)c(C(=O)c2c[nH]c3ncc(Cl)cc23)c1F
Method in brief: (§1)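 Quantification was by TMTpro 16plex LC-MS/MS with equalised channel sums, applied to the supernatant after 21,000xg for 90 min. Samples were crude K562 extract at 1 mg/mL protein in PBS pH 7.4 with 1 mM MgCl2, treated with 10 μM compound for 30 min, heated for 3 min across 48°C-58°C, pooled and brought to 0.5% NP-40 at 4°C. Values are log-two fold changes in thermal stability relative to solvent controls, from duplicates.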

Sequences of proteins named here, by UniProt entry; tags and fusion partners are left off. A change or cut given only in a name is not applied to a line headed by its entry.
UniProt Q9NY26: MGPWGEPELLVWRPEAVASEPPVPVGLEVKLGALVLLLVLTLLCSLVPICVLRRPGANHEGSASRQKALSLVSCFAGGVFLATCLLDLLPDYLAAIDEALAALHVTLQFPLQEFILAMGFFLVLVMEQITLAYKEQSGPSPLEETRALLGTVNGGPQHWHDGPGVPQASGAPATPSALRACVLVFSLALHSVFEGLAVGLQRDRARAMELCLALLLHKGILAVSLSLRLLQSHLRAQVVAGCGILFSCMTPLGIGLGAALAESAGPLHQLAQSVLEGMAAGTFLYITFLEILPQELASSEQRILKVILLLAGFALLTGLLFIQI
UniProt Q96NT5: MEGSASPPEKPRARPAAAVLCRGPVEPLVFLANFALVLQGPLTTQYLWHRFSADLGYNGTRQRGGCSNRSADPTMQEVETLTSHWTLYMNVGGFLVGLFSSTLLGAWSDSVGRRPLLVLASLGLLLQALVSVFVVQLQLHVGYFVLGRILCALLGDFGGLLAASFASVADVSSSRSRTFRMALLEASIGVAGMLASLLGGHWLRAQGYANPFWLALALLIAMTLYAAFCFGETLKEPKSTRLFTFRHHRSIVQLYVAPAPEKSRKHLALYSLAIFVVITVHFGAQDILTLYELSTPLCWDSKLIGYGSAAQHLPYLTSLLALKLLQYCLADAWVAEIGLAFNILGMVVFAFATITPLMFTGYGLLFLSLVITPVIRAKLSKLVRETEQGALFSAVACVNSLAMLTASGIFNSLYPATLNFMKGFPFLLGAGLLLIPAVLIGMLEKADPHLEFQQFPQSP
UniProt Q9NTN3, whole entry, looked up: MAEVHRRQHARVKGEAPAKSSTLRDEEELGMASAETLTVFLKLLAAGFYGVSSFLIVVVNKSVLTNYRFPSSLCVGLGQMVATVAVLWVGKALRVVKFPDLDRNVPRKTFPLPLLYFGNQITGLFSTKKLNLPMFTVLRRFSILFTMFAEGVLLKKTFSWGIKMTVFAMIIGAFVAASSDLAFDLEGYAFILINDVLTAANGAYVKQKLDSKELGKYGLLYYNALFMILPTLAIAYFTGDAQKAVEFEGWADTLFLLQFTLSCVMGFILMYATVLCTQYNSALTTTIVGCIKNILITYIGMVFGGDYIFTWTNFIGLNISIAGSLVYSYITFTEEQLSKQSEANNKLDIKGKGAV
UniProt Q6ZP29: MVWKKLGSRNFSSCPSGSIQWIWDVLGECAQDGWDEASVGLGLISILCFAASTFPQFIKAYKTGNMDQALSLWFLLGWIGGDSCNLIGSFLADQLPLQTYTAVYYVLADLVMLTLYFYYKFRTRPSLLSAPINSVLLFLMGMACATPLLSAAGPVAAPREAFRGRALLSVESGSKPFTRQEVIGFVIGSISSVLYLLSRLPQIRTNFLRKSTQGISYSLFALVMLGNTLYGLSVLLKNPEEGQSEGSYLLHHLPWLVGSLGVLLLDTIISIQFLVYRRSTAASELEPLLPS
UniProt Q8N2U9: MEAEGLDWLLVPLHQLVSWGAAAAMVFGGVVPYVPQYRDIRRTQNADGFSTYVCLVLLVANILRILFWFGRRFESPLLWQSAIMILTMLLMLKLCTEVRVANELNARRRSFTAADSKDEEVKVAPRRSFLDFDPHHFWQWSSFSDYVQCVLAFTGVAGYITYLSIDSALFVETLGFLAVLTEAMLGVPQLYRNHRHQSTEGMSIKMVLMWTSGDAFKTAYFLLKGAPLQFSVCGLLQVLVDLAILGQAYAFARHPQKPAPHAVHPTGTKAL
UniProt Q8IY92: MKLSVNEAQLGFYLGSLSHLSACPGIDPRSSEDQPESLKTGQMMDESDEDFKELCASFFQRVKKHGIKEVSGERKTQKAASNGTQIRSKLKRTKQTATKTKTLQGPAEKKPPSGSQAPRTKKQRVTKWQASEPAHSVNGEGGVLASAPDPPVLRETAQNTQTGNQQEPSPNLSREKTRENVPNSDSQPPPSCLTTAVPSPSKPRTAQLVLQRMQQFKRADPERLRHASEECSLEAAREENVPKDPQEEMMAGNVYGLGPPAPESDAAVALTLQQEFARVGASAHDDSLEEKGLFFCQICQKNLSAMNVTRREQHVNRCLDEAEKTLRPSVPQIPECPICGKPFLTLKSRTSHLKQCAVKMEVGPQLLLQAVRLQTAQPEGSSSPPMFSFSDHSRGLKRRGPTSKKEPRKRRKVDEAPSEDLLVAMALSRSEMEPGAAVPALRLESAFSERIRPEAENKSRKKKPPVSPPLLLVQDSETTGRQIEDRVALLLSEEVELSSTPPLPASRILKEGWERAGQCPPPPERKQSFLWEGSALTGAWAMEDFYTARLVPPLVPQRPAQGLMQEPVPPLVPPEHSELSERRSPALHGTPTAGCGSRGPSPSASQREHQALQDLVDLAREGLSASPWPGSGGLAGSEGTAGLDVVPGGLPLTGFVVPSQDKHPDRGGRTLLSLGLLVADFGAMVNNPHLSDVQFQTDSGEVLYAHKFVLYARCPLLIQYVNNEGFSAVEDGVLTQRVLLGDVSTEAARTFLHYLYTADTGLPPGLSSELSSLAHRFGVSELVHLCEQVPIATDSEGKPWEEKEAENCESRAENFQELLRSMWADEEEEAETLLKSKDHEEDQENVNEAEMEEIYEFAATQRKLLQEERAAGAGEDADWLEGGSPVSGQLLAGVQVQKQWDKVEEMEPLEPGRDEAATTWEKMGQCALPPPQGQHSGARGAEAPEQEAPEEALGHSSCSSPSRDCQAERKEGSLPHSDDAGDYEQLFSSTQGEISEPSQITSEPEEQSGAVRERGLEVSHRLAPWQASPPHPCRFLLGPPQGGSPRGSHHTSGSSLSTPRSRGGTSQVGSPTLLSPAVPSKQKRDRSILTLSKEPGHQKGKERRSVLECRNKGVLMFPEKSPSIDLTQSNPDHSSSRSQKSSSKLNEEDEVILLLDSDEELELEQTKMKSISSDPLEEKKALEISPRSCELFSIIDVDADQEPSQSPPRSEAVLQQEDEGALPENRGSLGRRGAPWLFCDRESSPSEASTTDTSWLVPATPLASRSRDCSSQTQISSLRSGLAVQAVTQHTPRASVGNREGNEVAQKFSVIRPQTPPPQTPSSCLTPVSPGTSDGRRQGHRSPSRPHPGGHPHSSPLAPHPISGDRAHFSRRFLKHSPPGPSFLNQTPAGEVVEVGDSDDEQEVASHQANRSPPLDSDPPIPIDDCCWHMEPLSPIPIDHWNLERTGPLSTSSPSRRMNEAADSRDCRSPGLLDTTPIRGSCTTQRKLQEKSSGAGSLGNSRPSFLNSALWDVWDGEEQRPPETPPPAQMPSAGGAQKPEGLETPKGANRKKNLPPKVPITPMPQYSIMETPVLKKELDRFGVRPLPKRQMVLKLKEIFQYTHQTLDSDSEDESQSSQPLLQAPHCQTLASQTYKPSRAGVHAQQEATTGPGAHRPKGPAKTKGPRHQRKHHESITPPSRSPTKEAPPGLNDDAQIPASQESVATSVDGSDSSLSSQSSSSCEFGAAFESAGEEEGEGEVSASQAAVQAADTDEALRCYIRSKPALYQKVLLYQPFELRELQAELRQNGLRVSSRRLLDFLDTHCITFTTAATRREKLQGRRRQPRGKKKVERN
UniProt Q86UD5: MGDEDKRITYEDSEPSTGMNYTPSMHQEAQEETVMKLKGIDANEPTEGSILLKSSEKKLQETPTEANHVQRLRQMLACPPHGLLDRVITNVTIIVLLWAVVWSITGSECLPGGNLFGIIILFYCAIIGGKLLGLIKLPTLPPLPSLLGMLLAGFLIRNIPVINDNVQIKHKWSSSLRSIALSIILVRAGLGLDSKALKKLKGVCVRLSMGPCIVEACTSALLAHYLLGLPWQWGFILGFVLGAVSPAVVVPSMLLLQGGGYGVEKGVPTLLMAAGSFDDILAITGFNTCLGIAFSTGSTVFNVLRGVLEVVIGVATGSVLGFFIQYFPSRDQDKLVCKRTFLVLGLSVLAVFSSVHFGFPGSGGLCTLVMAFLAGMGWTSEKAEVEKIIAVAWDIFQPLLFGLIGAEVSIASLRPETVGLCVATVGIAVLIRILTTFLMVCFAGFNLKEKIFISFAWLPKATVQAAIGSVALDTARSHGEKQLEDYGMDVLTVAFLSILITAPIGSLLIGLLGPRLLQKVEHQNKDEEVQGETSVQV
UniProt Q9BRV3: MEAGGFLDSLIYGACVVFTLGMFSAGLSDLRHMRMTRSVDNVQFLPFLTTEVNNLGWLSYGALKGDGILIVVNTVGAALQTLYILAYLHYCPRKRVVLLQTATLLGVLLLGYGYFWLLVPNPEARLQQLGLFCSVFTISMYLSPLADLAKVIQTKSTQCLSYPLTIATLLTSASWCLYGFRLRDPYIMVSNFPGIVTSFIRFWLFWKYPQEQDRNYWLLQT
UniProt Q6YBV0: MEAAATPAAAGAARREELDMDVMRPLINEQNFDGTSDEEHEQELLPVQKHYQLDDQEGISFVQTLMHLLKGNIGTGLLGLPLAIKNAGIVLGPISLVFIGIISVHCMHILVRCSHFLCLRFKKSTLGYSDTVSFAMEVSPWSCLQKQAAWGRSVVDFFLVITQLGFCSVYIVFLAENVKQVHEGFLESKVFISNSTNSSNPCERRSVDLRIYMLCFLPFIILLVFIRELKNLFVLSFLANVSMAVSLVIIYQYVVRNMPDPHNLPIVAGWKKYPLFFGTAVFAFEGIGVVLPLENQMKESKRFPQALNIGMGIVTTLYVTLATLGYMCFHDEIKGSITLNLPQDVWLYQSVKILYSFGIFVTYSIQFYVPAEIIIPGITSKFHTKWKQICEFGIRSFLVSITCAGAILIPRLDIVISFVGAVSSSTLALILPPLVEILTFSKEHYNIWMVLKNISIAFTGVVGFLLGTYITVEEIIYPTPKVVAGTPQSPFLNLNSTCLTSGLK
UniProt Q96QE2: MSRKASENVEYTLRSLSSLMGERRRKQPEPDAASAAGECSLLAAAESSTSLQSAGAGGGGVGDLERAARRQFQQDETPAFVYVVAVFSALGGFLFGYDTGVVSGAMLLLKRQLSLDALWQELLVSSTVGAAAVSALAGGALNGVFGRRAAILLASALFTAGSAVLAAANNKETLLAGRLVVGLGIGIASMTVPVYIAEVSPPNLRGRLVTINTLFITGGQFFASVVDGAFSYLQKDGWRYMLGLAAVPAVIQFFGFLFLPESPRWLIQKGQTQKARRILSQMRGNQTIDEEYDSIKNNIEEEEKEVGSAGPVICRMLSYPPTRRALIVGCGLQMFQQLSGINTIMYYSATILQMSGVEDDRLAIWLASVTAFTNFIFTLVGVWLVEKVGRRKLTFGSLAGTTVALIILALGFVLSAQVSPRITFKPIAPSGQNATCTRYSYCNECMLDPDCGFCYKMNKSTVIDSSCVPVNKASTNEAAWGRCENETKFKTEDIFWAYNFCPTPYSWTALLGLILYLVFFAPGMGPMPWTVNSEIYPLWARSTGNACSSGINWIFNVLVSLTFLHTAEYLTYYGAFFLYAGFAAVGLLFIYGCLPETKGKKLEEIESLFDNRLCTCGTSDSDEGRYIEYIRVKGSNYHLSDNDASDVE
UniProt Q96BD0: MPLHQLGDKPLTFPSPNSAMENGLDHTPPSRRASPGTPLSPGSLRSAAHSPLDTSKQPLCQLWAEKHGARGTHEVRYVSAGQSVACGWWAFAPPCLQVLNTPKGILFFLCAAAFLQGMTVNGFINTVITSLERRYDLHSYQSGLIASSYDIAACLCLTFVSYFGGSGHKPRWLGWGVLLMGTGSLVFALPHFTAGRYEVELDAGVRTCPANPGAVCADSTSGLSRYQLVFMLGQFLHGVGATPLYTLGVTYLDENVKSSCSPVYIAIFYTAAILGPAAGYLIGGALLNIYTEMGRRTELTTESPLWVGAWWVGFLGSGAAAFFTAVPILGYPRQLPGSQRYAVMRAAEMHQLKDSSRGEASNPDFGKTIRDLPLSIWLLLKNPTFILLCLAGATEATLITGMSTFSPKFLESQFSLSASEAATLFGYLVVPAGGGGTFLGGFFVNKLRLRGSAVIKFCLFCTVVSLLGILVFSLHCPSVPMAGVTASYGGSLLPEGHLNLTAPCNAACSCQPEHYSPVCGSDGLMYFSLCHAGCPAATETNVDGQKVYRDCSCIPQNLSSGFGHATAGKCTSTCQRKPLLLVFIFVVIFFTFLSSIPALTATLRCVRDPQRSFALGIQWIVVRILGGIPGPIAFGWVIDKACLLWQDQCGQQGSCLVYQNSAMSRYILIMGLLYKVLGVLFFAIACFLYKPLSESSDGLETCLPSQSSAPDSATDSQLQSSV
UniProt P78382: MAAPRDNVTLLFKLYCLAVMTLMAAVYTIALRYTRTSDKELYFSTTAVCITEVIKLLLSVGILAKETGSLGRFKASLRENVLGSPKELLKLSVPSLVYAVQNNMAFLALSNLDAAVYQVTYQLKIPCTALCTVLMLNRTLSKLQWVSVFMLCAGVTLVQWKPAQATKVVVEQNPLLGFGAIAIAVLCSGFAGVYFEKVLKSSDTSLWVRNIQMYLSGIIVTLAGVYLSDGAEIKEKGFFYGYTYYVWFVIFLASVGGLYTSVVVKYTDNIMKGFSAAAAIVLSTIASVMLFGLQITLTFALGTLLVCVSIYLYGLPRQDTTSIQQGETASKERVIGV

barasertib = compound: CCN(CCCOc1ccc2c(Nc3cc(CC(=O)Nc4cccc(F)c4)[nH]n3)ncnc2c1)CCOP(=O)(O)O [barasertib]
Method in brief: as §1

volasertib = compound: CC[C@@H]1C(=O)N(C)c2cnc(Nc3ccc(C(=O)N[C@H]4CC[C@H](N5CCN(CC6CC6)CC5)CC4)cc3OC)nc2N1C(C)C [volasertib]
Method in brief: as §1

[2] = compound: CCn1c(C(=O)N(C2CC2)C2CC2)cc2c3c(ncn3C)c(Nc3cc(C)n(C)n3)nc21
Method in brief: as §1

[3] = compound: CCn1cc(-c2ccnc3[nH]c(-c4cccc(CN(C)C)c4)cc23)c(-c2ccc(NC(=O)N(C)C)cc2)n1
Method in brief: as §1

[4] = compound: CN1CCC(CNc2ccc3ncc(-c4cccc(OC(F)(F)F)c4)n3n2)CC1
Method in brief: as §1

saracatinib = compound: CN1CCN(CCOc2cc(OC3CCOCC3)c3c(Nc4c(Cl)ccc5c4OCO5)ncnc3c2)CC1 [saracatinib]
Method in brief: as §1

sotrastaurin = compound: CN1CCN(c2nc(C3=C(c4c[nH]c5ccccc45)C(=O)NC3=O)c3ccccc3n2)CC1 [sotrastaurin]
Method in brief: as §1

alvocidib = compound: CN1CC[C@H](c2c(O)cc(O)c3c(=O)cc(-c4ccccc4Cl)oc23)[C@H](O)C1 [alvocidib]
Method in brief: as §1

Tubastatin A = compound: CN1CCc2c(c3ccccc3n2Cc2ccc(C(=O)NO)cc2)C1 [Tubastatin A]
Method in brief: as §1

[5] = compound: CNC(=O)C1=CC=CC=C1NC2=NC(=NC=C2Cl)NC3=C(C=C(C=C3)N4CCOCC4)OC
Method in brief: as §1

[6] = compound: CNc1nc(-c2ccc3c(N)n[nH]c3c2)cc(N2C[C@@H](C(=O)NC3CCCCC3)CC[C@H]2C)n1
Method in brief: as §1

[7] = compound: COc1cc2nc(-c3cc(F)ccc3O)nc(N[C@@H]3CNC[C@H]3C(C)(C)O)c2cc1OC
Method in brief: as §1

vemurafenib = compound: CCCS(=O)(=O)Nc1ccc(F)c(C(=O)c2c[nH]c3ncc(-c4ccc(Cl)cc4)cc23)c1F [vemurafenib]
Method in brief: as §1

defactinib = compound: CNC(=O)c1ccc(Nc2ncc(C(F)(F)F)c(NCc3nccnc3N(C)S(C)(=O)=O)n2)cc1 [defactinib]
Method in brief: as §1

alisertib = compound: COc1cc(Nc2ncc3c(n2)-c2ccc(Cl)cc2C(c2c(F)cccc2OC)=NC3)ccc1C(=O)O [alisertib]
Method in brief: as §1

gefitinib = compound: COc1cc2ncnc(Nc3ccc(F)c(Cl)c3)c2cc1OCCCN1CCOCC1 [gefitinib]
Method in brief: as §1

[8] = compound: CC[C@@H]1C(=O)N(C)c2cnc(Nc3ccc(C(=O)NC4CCN(C)CC4)cc3OC)nc2N1C1CCCC1
Method in brief: as §1

encorafenib = compound: COC(=O)N[C@@H](C)CNc1nccc(-c2cn(C(C)C)nc2-c2cc(Cl)cc(NS(C)(=O)=O)c2F)n1 [encorafenib]
Method in brief: as §1

[9] = compound: COC(=O)[C@H](CCSC)NC(=O)C1=C(C=C(C=C1)NC[C@H](CS)N)C2=CC=CC=C2
Method in brief: as §1

Measured: log2 fold change

SLC39A1 (UniProt Q9NY26)
inactive: [1] -0.012 | barasertib 0.212 | volasertib 0.069 | [2] 0.03 | [3] -0.323 | [4] 0.372 | saracatinib 0.02 | sotrastaurin 0.036 | alvocidib -0.133 | Tubastatin A -0.003 | [5] 0.024 | [6] 0.228 | [7] 0.241

SLC38A6 isoform 2 (UniProt Q8IZM9)
inactive: vemurafenib -0.021 | [5] -0.083 | defactinib 0.05

SLC46A1 (UniProt Q96NT5)
inactive: [1] -0.017 | volasertib 0.006 | [3] -0.174 | [4] 0.027 | saracatinib -0.031 | alvocidib 0.068 | [5] -0.007 | [6] -0.032 | [7] -0.041

SLC9A8 isoform 2 (UniProt Q9Y2E8)
inactive: [1] 0.01 | barasertib 0.068 | volasertib -0.023 | [2] 0.012 | [3] -0.025 | [4] 0.046 | saracatinib -0.072 | sotrastaurin 0.07 | alvocidib 0.023 | Tubastatin A 0.022 | [5] 0.033 | [6] 0.019 | alisertib -0.085 | [7] -0.002 | gefitinib 0.09

SLC29A3 (UniProt Q9BZD2)
inactive: [1] -0.103 | volasertib -0.048 | [2] 0.06 | [3] -0.109 | [4] 0.078 | sotrastaurin -0.077 | alvocidib 0.033 | Tubastatin A -0.111 | [5] 0.114 | alisertib 0.029 | [7] -0.142 | gefitinib -0.027

SLC25A35 (UniProt Q3KQZ1)
inactive: [8] 0.163 | [3] -0.112 | [4] 0.045 | sotrastaurin -0.044 | alvocidib 0.128 | encorafenib 0.01 | [9] -0.022

SLC35D1 (UniProt Q9NTN3)
inactive: vemurafenib 0.164 | sotrastaurin 0.083 | defactinib 0.035

SMAD5 (UniProt Q99717)
inactive: vemurafenib 0.035 | barasertib 1.42 | [8] 0.258 | [3] -0.194 | [4] 0.086 | saracatinib 0.081 | sotrastaurin 0.002 | alvocidib -0.016 | [5] 0.086 | defactinib 0 | [6] 0.105 | encorafenib 0.035 | [9] -0.093 | alisertib -0.079 | gefitinib -0.007

SLC66A1 (UniProt Q6ZP29)
inactive: [1] 0.048 | barasertib 0.047 | volasertib -0.133 | [2] 0 | [3] 0.054 | [4] -0.021 | sotrastaurin -0.004 | alvocidib -0.021 | Tubastatin A -0.088 | [5] -0.01 | alisertib -0.088 | [7] -0.01 | gefitinib -0.169

SLC25A23 isoform 3 (UniProt Q9BV35)
inactive: [1] 0.03 | volasertib 0.02 | [2] -0.078 | [3] -0.087 | [4] 0.172 | saracatinib -0.131 | sotrastaurin -0.046 | alvocidib -0.154 | Tubastatin A 0.097 | [5] 0.216 | [6] 0.193 | [7] 0.204

SLC25A28 (UniProt Q96A46)
inactive: vemurafenib -0.441 | [8] 0.205 | sotrastaurin -0.124 | defactinib 0.003 | encorafenib 0.065 | [9] -0.091

SLC66A2 (UniProt Q8N2U9)
inactive: [1] -0.013 | barasertib 0.093 | [8] -0.016 | volasertib -0.032 | [2] 0.026 | saracatinib -0.054 | Tubastatin A 0.036 | [5] -0.034 | [6] 0.162 | encorafenib 0.007 | [9] 0.205 | alisertib 0.164 | [7] 0.061 | gefitinib 0.187

SLC43A3 (UniProt Q8NBI5)
inactive: [1] -0.239 | barasertib -0.079 | volasertib 0.29 | [2] -0.251 | Tubastatin A 0.221 | [7] -0.027

SLX4 (UniProt Q8IY92)
inactive: saracatinib 0.277 | [5] -0.081 | [6] 0.278

SLC25A16 (UniProt P16260)
inactive: vemurafenib -0.02 | [3] 0.298 | [4] -0.051 | sotrastaurin -0.069 | alvocidib -0.024 | [5] -0.016 | defactinib 0.027 | alisertib -0.064 | gefitinib 0.004

SLC35E2B (UniProt P0CK96)
inactive: vemurafenib -0.049 | [8] -0.082 | defactinib 0.073 | encorafenib 0.187 | [9] -0.131

SLC44A1 (UniProt Q8WWI5)
inactive: [2] -0.036 | [3] -0.498 | [4] 0.017 | saracatinib -0.135 | alvocidib -0.11 | Tubastatin A 0.056 | [6] 0.148

SLC35C2 isoform 3 (UniProt Q9NQQ7)
inactive: [1] -0.049 | barasertib 0.129 | [8] -0.141 | volasertib 0.075 | [2] 0.012 | [3] 0.028 | [4] 0.244 | saracatinib -0.026 | sotrastaurin 0.024 | alvocidib 0.048 | Tubastatin A 0.025 | [5] -0.018 | [6] 0.108 | encorafenib 0.066 | [9] -0.028 | alisertib -0.13 | [7] 0.098 | gefitinib 0.15

SLC3A2 (UniProt F5H867)
inactive: [1] 0.024 | barasertib -0.011 | volasertib 0.051 | [3] -0.111 | [4] 0.106 | alvocidib -0.088 | alisertib 0.033 | [7] 0.007 | gefitinib 0.1

SLC39A6 (UniProt Q13433)
inactive: [1] 0.039 | volasertib -0.015 | [2] 0.005 | [3] 0.221 | [4] 0.019 | sotrastaurin -0.031 | alvocidib 0.006 | Tubastatin A 0.083 | [5] -0.068 | alisertib 0.065 | [7] -0.002 | gefitinib -0.09

SLC9A7 (UniProt Q96T83)
inactive: [1] 0.041 | barasertib 0.249 | volasertib -0.038 | sotrastaurin -0.105 | [7] 0.124

SLC9B2 (UniProt Q86UD5)
inactive: [1] -0.05 | volasertib -0.091 | [2] 0.065 | sotrastaurin 0.06 | Tubastatin A 0.071 | [7] -0.002

SLC50A1 (UniProt Q9BRV3)
inactive: [1] 0.277 | volasertib 0 | [2] 0.139 | [3] -0.165 | [4] 0.069 | saracatinib -0.068 | sotrastaurin 0.156 | alvocidib -0.042 | Tubastatin A 0.178 | [5] 0.016 | [6] -0.235 | [7] 0.039

SLC36A4 (UniProt Q6YBV0)
inactive: [1] -0.092 | barasertib -0.326 | [8] 0.183 | volasertib 0.033 | [2] -0.038 | [3] 0.001 | [4] 0.097 | saracatinib 0.174 | sotrastaurin 0.027 | alvocidib -0.108 | Tubastatin A -0.059 | [5] -0.062 | [6] 0.187 | encorafenib 0.012 | [9] 0.084 | alisertib -0.22 | [7] 0.022 | gefitinib 0.097

SLC25A39 (UniProt Q9BZJ4)
inactive: [3] -0.125 | [4] -0.568 | saracatinib -0.06 | alvocidib 0.011 | [5] -0.128 | [6] 0.099 | alisertib 0.179 | gefitinib -0.149

SLC27A6 (UniProt Q9Y2P4)
inactive: [5] 0.085

SMAD3 (UniProt P84022)
inactive: [1] -0.083 | volasertib -0.023 | [2] 0.039 | saracatinib 0.015 | sotrastaurin 0.011 | Tubastatin A -0.07 | [6] 0.053 | alisertib 0.025 | [7] 0.014 | gefitinib -0.006

SLC2A13 (UniProt Q96QE2)
inactive: [8] 0.019 | [3] 0.078 | [4] 0.006 | saracatinib 0.012 | alvocidib -0.033 | [5] -0.085 | [6] 0.047 | encorafenib 0.101 | [9] -0.12

Two records picked at random from those above:
SLC36A4 (UniProt Q6YBV0)
inactive: [1] -0.092 | barasertib -0.326 | [8] 0.183 | volasertib 0.033 | [2] -0.038 | [3] 0.001 | [4] 0.097 | saracatinib 0.174 | sotrastaurin 0.027 | alvocidib -0.108 | Tubastatin A -0.059 | [5] -0.062 | [6] 0.187 | encorafenib 0.012 | [9] 0.084 | alisertib -0.22 | [7] 0.022 | gefitinib 0.097

SMAD3 (UniProt P84022)
inactive: [1] -0.083 | volasertib -0.023 | [2] 0.039 | saracatinib 0.015 | sotrastaurin 0.011 | Tubastatin A -0.07 | [6] 0.053 | alisertib 0.025 | [7] 0.014 | gefitinib -0.006

Further entries.

SLC41A1 (UniProt Q8IVJ1)
inactive: [1] 0.021 | [8] 0.085 | volasertib -0.084 | [2] 0.035 | [3] 0.083 | [4] 0.06 | sotrastaurin 0.082 | alvocidib -0.213 | Tubastatin A 0.055 | [5] 0.043 | encorafenib 0.071 | [9] -0.031 | alisertib 0.024 | [7] 0.014 | gefitinib 0.153

SLC41A3 isoform 9 (UniProt Q96GZ6)
inactive: vemurafenib 0.121 | barasertib -0.146 | [8] 0.043 | [2] -0.097 | [3] -0.437 | [4] 0.033 | alvocidib -0.138 | Tubastatin A 0.178 | defactinib -0.078 | encorafenib 0.038 | [9] 0.051 | alisertib 0.024 | gefitinib -0.123

SLCO4A1 (UniProt Q96BD0)
inactive: barasertib 0.037 | [3] -0.015 | [4] 0.042 | alvocidib -0.129 | alisertib -0.041 | gefitinib -0.001

SLC35A1 (UniProt P78382)
inactive: vemurafenib 0.038 | barasertib 0.085 | [3] -0.099 | [4] 0.066 | sotrastaurin 0.131 | alvocidib -0.043 | [5] -0.23 | defactinib 0.031 | alisertib -0.018 | gefitinib -0.036

SLC39A13 (UniProt Q96H72)
inactive: [2] 0.035 | Tubastatin A -0.125 | [5] -0.058

SLCO2B1 (UniProt O94956)
inactive: [8] -0.155 | [3] -0.117 | [4] 0.135 | alvocidib -0.03 | encorafenib 0.096 | [9] 0.16

SLC23A2 (UniProt Q9UGH3)
inactive: [1] -0.122 | [8] 0.135 | volasertib -0.213 | [2] -0.094 | [3] -0.352 | [4] 0.241 | saracatinib 0.072 | sotrastaurin 0.036 | alvocidib -0.063 | Tubastatin A -0.038 | [5] -0.097 | [6] 0.03 | encorafenib -0.035 | [9] 0.247 | [7] -0.139

From the supplement of paper PMC10849652
